# Library screen at single concentrations

By UniProt entry, the sequences of proteins in these tests, tags left out. Residues count along the entry.
UniProt P9WFT3, whole entry: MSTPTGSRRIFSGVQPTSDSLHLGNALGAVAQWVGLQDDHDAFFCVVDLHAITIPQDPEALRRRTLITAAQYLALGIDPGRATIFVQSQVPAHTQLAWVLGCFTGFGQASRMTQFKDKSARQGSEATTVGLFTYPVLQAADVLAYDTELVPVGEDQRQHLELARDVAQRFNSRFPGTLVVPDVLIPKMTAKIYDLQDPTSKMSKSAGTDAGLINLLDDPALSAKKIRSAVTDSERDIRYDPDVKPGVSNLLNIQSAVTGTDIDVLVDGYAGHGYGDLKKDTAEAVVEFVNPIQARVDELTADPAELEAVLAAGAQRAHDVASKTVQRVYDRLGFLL
UniProt I6X8D2, whole entry: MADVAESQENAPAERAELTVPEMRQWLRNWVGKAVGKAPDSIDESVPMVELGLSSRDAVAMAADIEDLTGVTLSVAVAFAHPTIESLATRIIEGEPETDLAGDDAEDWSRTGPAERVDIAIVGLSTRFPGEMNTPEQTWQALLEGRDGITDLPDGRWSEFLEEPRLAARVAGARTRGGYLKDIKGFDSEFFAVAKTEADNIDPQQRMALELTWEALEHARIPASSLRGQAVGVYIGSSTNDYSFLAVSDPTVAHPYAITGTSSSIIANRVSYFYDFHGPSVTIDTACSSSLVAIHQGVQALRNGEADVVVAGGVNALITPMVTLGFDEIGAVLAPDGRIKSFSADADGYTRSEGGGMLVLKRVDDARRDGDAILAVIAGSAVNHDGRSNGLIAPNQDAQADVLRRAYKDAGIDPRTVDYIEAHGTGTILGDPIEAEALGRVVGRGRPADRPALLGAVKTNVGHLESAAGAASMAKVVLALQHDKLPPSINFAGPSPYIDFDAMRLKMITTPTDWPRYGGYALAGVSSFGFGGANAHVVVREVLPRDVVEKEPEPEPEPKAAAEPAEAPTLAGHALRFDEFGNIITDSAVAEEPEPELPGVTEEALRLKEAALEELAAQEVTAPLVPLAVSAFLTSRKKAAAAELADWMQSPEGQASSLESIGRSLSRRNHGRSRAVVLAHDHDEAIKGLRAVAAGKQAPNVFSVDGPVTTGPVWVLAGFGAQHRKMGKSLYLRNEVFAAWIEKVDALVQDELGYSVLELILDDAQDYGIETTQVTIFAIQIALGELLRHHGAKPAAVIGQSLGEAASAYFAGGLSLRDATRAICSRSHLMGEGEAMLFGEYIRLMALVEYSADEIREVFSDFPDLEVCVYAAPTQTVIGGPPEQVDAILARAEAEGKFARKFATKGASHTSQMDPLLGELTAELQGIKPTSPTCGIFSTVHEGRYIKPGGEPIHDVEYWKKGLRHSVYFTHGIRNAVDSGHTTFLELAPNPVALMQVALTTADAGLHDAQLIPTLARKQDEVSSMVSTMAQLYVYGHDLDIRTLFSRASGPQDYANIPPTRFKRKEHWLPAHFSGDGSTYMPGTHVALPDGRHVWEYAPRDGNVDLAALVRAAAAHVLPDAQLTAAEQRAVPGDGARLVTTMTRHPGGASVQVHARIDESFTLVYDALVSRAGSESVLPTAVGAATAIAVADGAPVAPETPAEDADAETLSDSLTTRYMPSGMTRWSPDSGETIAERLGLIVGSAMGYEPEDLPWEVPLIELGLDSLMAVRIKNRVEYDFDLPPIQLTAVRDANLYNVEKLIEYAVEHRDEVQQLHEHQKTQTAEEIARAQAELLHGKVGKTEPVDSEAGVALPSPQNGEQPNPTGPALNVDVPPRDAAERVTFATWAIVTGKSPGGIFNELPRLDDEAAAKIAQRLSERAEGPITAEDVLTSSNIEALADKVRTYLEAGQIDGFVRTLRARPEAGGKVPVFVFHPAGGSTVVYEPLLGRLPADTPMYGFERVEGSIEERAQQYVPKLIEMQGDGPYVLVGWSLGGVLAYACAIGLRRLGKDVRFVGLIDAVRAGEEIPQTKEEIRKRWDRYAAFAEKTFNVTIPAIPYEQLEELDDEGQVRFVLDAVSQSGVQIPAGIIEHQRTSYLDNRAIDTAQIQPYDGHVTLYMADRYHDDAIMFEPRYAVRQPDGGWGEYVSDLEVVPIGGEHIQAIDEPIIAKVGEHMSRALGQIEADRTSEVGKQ
UniProt A4I591, 1-473: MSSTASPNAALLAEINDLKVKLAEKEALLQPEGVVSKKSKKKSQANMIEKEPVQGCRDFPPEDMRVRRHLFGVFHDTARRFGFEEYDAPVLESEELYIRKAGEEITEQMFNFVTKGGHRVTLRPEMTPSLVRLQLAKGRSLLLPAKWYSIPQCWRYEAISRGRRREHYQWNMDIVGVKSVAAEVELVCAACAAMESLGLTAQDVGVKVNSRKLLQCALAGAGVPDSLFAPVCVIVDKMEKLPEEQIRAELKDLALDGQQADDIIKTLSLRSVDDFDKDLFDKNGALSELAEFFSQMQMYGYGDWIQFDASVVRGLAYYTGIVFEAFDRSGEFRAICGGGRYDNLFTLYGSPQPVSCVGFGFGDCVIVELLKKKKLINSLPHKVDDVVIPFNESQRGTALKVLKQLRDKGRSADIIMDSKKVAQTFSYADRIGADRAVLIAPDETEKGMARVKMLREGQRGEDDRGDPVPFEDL
UniProt Q4DA54, 1-478: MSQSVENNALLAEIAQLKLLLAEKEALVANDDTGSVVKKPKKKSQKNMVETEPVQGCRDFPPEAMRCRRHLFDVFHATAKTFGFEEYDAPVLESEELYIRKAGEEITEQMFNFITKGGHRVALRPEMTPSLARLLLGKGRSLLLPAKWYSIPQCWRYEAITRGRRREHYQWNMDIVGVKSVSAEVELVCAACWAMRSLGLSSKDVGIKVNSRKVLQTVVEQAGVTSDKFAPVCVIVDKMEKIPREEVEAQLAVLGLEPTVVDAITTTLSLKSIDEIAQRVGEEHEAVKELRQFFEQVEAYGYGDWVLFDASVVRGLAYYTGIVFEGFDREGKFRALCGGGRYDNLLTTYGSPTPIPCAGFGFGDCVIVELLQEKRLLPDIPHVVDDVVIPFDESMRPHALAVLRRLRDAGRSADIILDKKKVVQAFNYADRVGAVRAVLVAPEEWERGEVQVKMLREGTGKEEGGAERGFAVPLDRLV

A: 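Tryptophan-tRNA ligase, Mycobacterium tuberculosis (UniProt P9WFT3). Enzyme assay of tryptophanyl-tRNA synthetase; the read-out is not stated. Concentration: 10 µM. Direction is not recorded; retested compounds ran higher, which suggests that high means inhibition. Size under these conditions: about 65,000 compounds, about 64 of them at 50% or above in at least one test.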
B: 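Enzyme assay of the thioesterase domain of polyketide synthase 13; the read-out is not stated. Target: Polyketide synthase Pks13, Mycobacterium tuberculosis (UniProt I6X8D2). Concentration: 30 µM. Higher reads as stronger inhibition (inferred from which compounds were picked for retests). About 67,000 compounds were tested under these conditions; 0.46% (about 300) showed 50% or more at least once.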
C: 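Histidine-tRNA ligase, Leishmania infantum (UniProt A4I591). Enzyme assay of histidyl-tRNA synthetase; the read-out is not stated. Tested at 30 µM. The record gives no direction; compounds that gave an IC50 in retests scored well above the rest, so higher reads as stronger inhibition. The assay is labelled LdHisRS but filed under L. infantum. Size under these conditions: about 69,000 compounds, about 410 of them at 50% or above in at least one test.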
D: 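Histidine-tRNA ligase, Trypanosoma cruzi CL Brener (UniProt Q4DA54). Enzyme assay of histidyl-tRNA synthetase; the read-out is not stated. Compounds at 30 µM. The record gives no direction; compounds that gave an IC50 in retests scored well above the rest, so higher reads as stronger inhibition. Size under these conditions: about 69,000 compounds, about 31 of them at 50% or above in at least one test.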

Results are given as percent effect.
How 0% and 100% were set is not recorded. Most values in the screen are low, and negative values occur.
This is an unselected part of the compounds tested.
A dash means the value is not listed here; it may have been measured.

compound,A,B,C,D
CN(C)C(=O)c1cc2c(nc1NCC1CC1)CCN(CC1CC1)CC2,-1.724%,-12.69%,15.28%,8.411%
Cn1ccnc1CN1C[C@@H](CN2CCCCCC2)[C@@H](CO)C1,-1.154%,-5.317%,5.66%,2.5%
COc1ccccc1C(=O)Nc1c(C)cnn1CC1CC1,0.5482%,-8.797%,14.52%,6.186%
c1nc2c(c(C3CC3)n1)CCN(Cc1ccoc1)CC2,2.056%,-16.1%,15.24%,0%
CCc1nc(C)c(C(C)N(C)CCc2ccncc2)s1 (configuration not stated),0.2337%,-1.841%,22.08%,-0.4926%
CC(=O)Nc1ncc(S(=O)(=O)N2CCC(C)CC2)s1,-1.154%,-3.991%,0%,-2.469%
O=S(=O)(Cc1ccccc1)NCCNc1ccc(-n2cccc2)nn1,-3.267%,-15.04%,6.957%,2.062%
COc1c(C2CCCN2C(=O)c2cncnc2C)c(C)nn1C (configuration not stated),-2.568%,-5.249%,0%,4.183%
Cc1csc(N2CCN(Cc3ccccn3)CC2C)n1 (configuration not stated),0.4989%,4.35%,25%,4.959%
Cn1ccc(C(=O)N2CCCC2c2cc(CO)[nH]n2)n1 (configuration not stated),-4.243%,-7.925%,4.196%,3.39%
CCn1ncc(CN2CCC(O)(Cn3ccc4ncccc43)CC2)c1C,-,-2.252%,5.208%,0%
CS(=O)(=O)N1CCCn2nc(CNc3cc(C#N)ccn3)cc2C1,0.486%,5.453%,11.11%,2.041%
CCN(CCOC)C(=O)CCc1scnc1C,-3.602%,-32.34%,14.53%,3.333%
O=C(c1cn(CC(=O)N2CCCC2)c2ccccc12)C1CC1,-2.351%,-18.59%,-2.857%,7.143%
COc1ccc2cc(CN(C)CCc3cn[nH]c3)c(=O)[nH]c2c1,-4.069%,-19.76%,20.51%,7.027%
CNS(=O)(=O)c1ccc(C(=O)Nc2ccc3c(c2)C(=O)NC3)cc1,1.493%,-44.46%,24.05%,7.328%
COc1ccc(CC(C)(O)CNC(=O)c2cccs2)cc1 (configuration not stated),5.489%,-17.82%,9.402%,-1.111%
Cc1ncsc1C(=O)N1CCn2nc(CN3CCSCC3)cc2C1,-2.599%,-12.76%,15.79%,0.5587%
O=C(NCCC(O)c1ccccc1)c1ccco1 (configuration not stated),1.651%,-18.67%,12.5%,0%
Cc1cc(C)nc(N2CCCC(c3nccn3CCCN(C)C)C2)c1 (configuration not stated),0.8393%,-7.347%,12.94%,3.139%
c1cnn(CC2CCCN2c2ncnc3sccc23)c1 (configuration not stated),1.652%,-14.01%,6.154%,4.215%
COc1cccc(CNC(=O)CN2CCCC(Cn3cncn3)C2)c1 (configuration not stated),-1.251%,-19.54%,12.07%,7.91%
Fc1ccc(NCc2ccncc2)c(OC(F)F)c1,-2.734%,-14.45%,6.849%,0.9852%
Clc1ccccc1-c1nnc(CNCCn2cccn2)o1,-8.023%,3.213%,1.695%,1.714%
Cc1[nH]c(-c2ccccc2)nc1C(=O)N1CCC2(CCCO2)CC1,2.388%,-9.147%,14.52%,3.247%
CNC(=O)c1ccc(-c2ccc(CNC(=O)COC)cc2)nc1C,0.4933%,-6.756%,8.571%,9.579%
O=C(NCCNC(=O)N1CCC(c2ccccc2)C1)C1CC1 (configuration not stated),-1.316%,-18.28%,21.15%,0.8333%
Cc1noc(C)c1CN1CCCCC1c1nc(-c2ccccc2)no1 (configuration not stated),-8.14%,-18.48%,15.38%,2.299%
CN1CCN2C(=O)N(c3ccccc3)C[C@H]2C1,0.6777%,-,-344.4%,2.97%
CN1CCN(c2ccc(Cl)cc2NC(=O)c2ccco2)CC1,-3.883%,-24.1%,18.99%,1.293%
Cc1nn(C)c(C)c1C1COCCN1c1ncncc1Br (configuration not stated),0.2172%,-4.973%,8.036%,10%
CN(C)C(=O)Cn1ccc2cc(NC(=O)N3CCOCC3)ccc21,-2.794%,-27.68%,13.09%,8.021%
CC(CNC(=O)c1ccc(Cl)cc1I)N1CCCC1 (configuration not stated),-2.09%,-15.77%,15.38%,6.667%
Cc1ccc(NC(=O)N(C)Cc2cnn(C)c2)cc1OCC(F)F,3.991%,-26.85%,26.19%,2.256%
CN(Cc1ccc(F)c(F)c1)C(=O)CCc1nc(-c2nnc[nH]2)no1,1.143%,-68.83%,18.42%,5.028%
Cc1nc(CN2CCN(C)C(=O)C23CCN(CC2CCCC2)CC3)cs1,-,-2.62%,15.38%,10.61%
O=C1CCC2(CCCN(C(=O)c3cscn3)C2)CN1CCc1c[nH]cn1 (configuration not stated),4.06%,-,14.15%,5.021%
CCc1ccc(S(=O)(=O)NCC2CCN(c3cnccn3)CC2)s1,-2.714%,56.2%,15.07%,10%
CCCn1nc(C(=O)N(C)Cc2nnc3n2CCC3)ccc1=O,-4.175%,5.827%,4.839%,4.082%
O=C(c1cccnc1)N1CCO[C@@H]2CNC[C@@H]21,-,-23.04%,-2.703%,2.21%
CN(Cc1cc(C2CC2)[nH]n1)C(=O)C(c1cccnc1)N1CCCC1 (configuration not stated),11.72%,-27.91%,20.51%,-4.598%
CCc1cnc(N2CCc3ncnc(N4CCN(C)CC4)c3CC2)nc1,1.34%,-2.067%,14.53%,8.021%
CCc1ccsc1C(=O)N1CCCN(Cc2nccn2CC)CC1,0.312%,-19.84%,12.84%,2.353%
Cc1cn2nc(N3CCCCC3Cn3cccn3)sc2n1 (configuration not stated),13%,-53.51%,11.97%,9.402%
O=C(O)c1cccnc1CN1CCCCC1CCc1cccc(O)c1 (configuration not stated),15.66%,-51.69%,15.38%,6.468%
Cc1noc(C)c1CCC(=O)N[C@@H]1CCC[C@@H](Oc2cccnc2)[C@@H]1O,-8.899%,4.78%,14.08%,7.692%
COc1ccnc(N2CCN(C(=O)c3cnc(C4CC4)s3)CC2)n1,-0.7916%,-30.89%,16.39%,2.326%
COc1cccc(NC(=O)N(CCO)C2CCc3ccccc32)c1 (configuration not stated),-3.565%,-32.17%,5%,-5.195%
O=C([C@H]1C[C@@H]2CCN(c3cccc(F)c3)C[C@H]2O1)N1CCCCO1,-0.4433%,4.829%,22.22%,3.81%
O=S(=O)(Cc1cccc2cccnc12)NC(CO)c1ccco1 (configuration not stated),-1.349%,8.726%,6.14%,3.448%
NC(=O)c1nnn(-c2ccc(Br)cc2)n1,10.03%,-16.33%,16.5%,-3.261%
CCC(C(=O)NCC1=CCCN(C)C1)c1ccccc1 (configuration not stated),2.855%,-2.405%,10.84%,2.439%
Cc1nn(C)c(N(C)C)c1CNCc1cccnc1-n1cncn1,2.437%,-11.26%,10.81%,-1.128%
CC(C)(C)NC(=O)CN1CCCN(Cc2cc(C#N)ccc2F)CC1,8.81%,-26.13%,-3.125%,10.64%
CCCN1C[C@H]2CC[C@@H]1CN(Cc1ccc(Cn3cccn3)cc1)C2,-2.27%,-39.86%,17.5%,7.895%
CN(Cc1c(F)cccc1Cl)C(=O)Nc1cnn(CC(N)=O)c1,3.505%,-9.503%,14.29%,7.389%
Cc1nn2cc(CCNC(=O)c3cc(C(C)C)nn3C)nc2s1,-0.3276%,-7.658%,15.49%,3.867%

The last 7 entries again:

compound,A,B,C,D
NC(=O)c1nnn(-c2ccc(Br)cc2)n1,10.03%,-16.33%,16.5%,-3.261%
CCC(C(=O)NCC1=CCCN(C)C1)c1ccccc1 (configuration not stated),2.855%,-2.405%,10.84%,2.439%
Cc1nn(C)c(N(C)C)c1CNCc1cccnc1-n1cncn1,2.437%,-11.26%,10.81%,-1.128%
CC(C)(C)NC(=O)CN1CCCN(Cc2cc(C#N)ccc2F)CC1,8.81%,-26.13%,-3.125%,10.64%
CCCN1C[C@H]2CC[C@@H]1CN(Cc1ccc(Cn3cccn3)cc1)C2,-2.27%,-39.86%,17.5%,7.895%
CN(Cc1c(F)cccc1Cl)C(=O)Nc1cnn(CC(N)=O)c1,3.505%,-9.503%,14.29%,7.389%
Cc1nn2cc(CCNC(=O)c3cc(C(C)C)nn3C)nc2s1,-0.3276%,-7.658%,15.49%,3.867%

Measurements from “University of Dundee, Small-Polar-MMV Screening Library” (2021), ChEMBL document CHEMBL3988442.